Patent US20260216255A1, “STRAIN OF COLLINSELLA, AND PHARMACEUTICAL COMPOSITION THEREOF” (MOON (GUANGZHOU) BIOTECH CO., LTD., priority 2022, published 2026)
For at least one compound, name, drawing or mass did not settle the structure.

Test system: strain MNH 18574
Assay: Antibiotic sensitivity test by disk diffusion method
Format: cell-based, Collinsella sp.
Procedure: An antibiotic sensitivity test was carried out on the strain MNH 18574 by a disk diffusion method.

SMILES: CN(C)[C@@H]1C(O)=C(C(N)=O)C(=O)[C@@]2(O)C(O)=C3C(=O)c4c(O)cccc4[C@@](C)(O)[C@H]3C[C@@H]12 [Tetracycline (TET), Tetracycline]
- sensitivity or resistance of strain MNH 18574 to the antibiotic: resistant
